The values below are quoted from earlier work in patent publication US6218367A, “Paclitaxel-carbohydrate conjugates: design, synthesis and biological evaluations” (Organomed Corporation, priority 1999, dated 2001).

Each structure is given as a SMILES string. ≈ marks a conversion by molar mass, not a printed value. Entries after “also recorded” stand apart in the source; their conditions may differ.

For this data set the following is noted: cited from earlier work.

Take `CC(=O)O[C@H]1C(=O)[C@@]2(C)[C@H]([C@H](OC(=O)c3ccccc3)[C@]3(O)C[C@H](OC(=O)[C@H](O)[C@@H](NC(=O)c4ccccc4)c4ccccc4)C(C)=C1C3(C)C)[C@]1(OC(C)=O)CO[C@@H]1C[C@@H]2O` [paclitaxel]: under “in water”, the “water solubility (in words)” value is recorded as “extremely insoluble in water; also recorded: very low solubility in water”. The water solubility (reported solubility (Vyas et al., 1993)) is 0.25 µg/mL (≈ 0.293 µM).
